Measurements from paper PMC8185548.
No constants are given. Whether binding was seen depends on the method and setting. Binding seen in cells or lysates may run through a third protein. Some entries that bind do so weakly or less than the wild type.

Protein sequences, listed by entry. Tags and fused reporters are not part of them. Residues count along the entry.
UniProt P70658: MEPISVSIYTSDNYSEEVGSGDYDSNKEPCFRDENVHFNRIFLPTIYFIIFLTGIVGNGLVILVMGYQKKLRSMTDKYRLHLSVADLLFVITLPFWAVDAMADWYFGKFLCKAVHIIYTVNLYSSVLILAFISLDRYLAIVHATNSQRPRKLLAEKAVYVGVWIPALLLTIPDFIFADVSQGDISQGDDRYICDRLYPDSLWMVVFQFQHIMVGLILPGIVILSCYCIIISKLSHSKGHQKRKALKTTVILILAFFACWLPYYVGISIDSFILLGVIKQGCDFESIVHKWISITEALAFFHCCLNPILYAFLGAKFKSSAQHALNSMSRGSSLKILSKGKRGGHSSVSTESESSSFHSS
UniProt Q9QUK6, residues 26-835: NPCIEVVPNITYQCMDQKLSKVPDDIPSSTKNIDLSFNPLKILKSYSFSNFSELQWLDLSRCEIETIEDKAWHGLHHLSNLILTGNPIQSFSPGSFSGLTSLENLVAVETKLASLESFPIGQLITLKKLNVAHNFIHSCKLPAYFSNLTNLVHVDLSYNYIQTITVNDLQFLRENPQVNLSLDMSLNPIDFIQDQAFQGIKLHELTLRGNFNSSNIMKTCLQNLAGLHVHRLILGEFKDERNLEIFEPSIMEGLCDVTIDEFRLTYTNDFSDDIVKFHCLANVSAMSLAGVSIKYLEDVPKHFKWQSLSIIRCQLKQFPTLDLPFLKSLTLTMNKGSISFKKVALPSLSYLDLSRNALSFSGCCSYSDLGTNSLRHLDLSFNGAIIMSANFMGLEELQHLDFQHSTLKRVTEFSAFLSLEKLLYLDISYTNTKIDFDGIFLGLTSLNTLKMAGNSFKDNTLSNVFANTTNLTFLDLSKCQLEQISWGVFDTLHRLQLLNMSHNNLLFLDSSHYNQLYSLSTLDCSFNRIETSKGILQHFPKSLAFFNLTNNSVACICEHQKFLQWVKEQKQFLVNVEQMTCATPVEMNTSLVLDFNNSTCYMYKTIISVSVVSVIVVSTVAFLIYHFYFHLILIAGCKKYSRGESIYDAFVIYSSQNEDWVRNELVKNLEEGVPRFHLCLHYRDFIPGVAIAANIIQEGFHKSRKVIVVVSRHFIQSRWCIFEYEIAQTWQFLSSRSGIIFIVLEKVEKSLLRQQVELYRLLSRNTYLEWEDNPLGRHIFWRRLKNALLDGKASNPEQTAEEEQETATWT
UniProt Q62151, residues 23-402: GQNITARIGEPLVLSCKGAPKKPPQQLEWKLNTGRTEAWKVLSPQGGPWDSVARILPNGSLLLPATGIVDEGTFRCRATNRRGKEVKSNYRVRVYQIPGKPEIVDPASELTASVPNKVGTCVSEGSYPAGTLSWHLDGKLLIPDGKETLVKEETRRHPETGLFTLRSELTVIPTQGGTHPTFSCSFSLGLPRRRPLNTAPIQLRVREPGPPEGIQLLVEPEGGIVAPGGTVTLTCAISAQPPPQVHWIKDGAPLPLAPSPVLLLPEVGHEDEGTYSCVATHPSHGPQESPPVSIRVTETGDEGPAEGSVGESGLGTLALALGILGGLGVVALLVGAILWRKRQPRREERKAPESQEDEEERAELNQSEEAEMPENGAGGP

Assays:
[1] = target: CXCR4 (mouse (endogenous in AB1 cells)) (UniProt P70658); experiment: proximity ligation; fixed MM (AB1) cells, overnight 400 nM BoxA or PBS, permeabilized or not; PLA performed on one receptor at a time (CD47, CXCR4, RAGE, TLR4) to detect pairs of identical receptor molecules
[2] = target: T1, CD47 (mouse (endogenous in AB1 cells)) (UniProt Q61735); experiment: proximity ligation; fixed MM (AB1) cells on coverslips, resting (PBS) or treated overnight with 400 nM BoxA or 10 nM CXCL12; primary antibodies to CD47 together with anti-CXCR4, anti-RAGE or anti-TLR4; Duolink probes; confocal imaging, signal per cell quantified
T1 sequence: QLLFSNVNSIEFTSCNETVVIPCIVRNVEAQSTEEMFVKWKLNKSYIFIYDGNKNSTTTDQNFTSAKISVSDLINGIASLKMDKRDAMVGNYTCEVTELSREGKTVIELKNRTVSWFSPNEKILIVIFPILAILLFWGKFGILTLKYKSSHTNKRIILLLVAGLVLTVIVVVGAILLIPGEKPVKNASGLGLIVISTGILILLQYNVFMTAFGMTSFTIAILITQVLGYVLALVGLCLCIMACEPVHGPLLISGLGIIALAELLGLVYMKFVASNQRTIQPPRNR

[3] = target: TLR4 (mouse (endogenous in AB1 cells)) (UniProt Q9QUK6); experiment: proximity ligation; fixed MM (AB1) cells, overnight 400 nM BoxA or PBS, permeabilized or not; PLA performed on one receptor at a time (CD47, CXCR4, RAGE, TLR4) to detect pairs of identical receptor molecules
[4] = target: RAGE (mouse (endogenous in AB1 cells)) (UniProt Q62151); experiment: as above
[5] = target: T2, CD47 (mouse (endogenous in AB1 cells)), Q61735; experiment: as above; details: remark: other sources report otherwise
T2 chain: T1 sequence

**Q.** Which results are given for “CXCR4 (from UniProt P70658 1-359) (receptor)”?
**A.** binding [1]: binds; binding [2]: binds

**Q.** With “TLR4 (from UniProt Q9QUK6 26-835) (receptor)” as the molecule, how does the binding [3] read?
**A.** Its binding is “binds”.

**Q.** Which binding [4] does the source give for “RAGE (from UniProt Q62151 23-402) (receptor)” here?
**A.** Its binding is “binds”.

B1: CD47, Q61735 19-303 (protein)
chain: T1 sequence
**Q.** Which binding [5] does the source give for B1 here?
**A.** The binding was “binds”.
